PubChem BioAssay AID504764 | Drosophila RNAi Screening Center – 2011

Assay: 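Genes whose knock-down alters Notch-dependent transcription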 (primary screen)
Cells: Drosophila Kc167 cells
Reagent: long dsRNA against Drosophila genes
Timing: about 5 days (4 days dsRNA, then 24 h after transfection)
Challenge: transfection of constitutively active membrane-tethered Notch lacking the extracellular domain, read 24 h later
Measurement: 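Light from a Notch-responsive E(spl)m3 luciferase reporter under active Notch, with control-promoter and no-Notch reporter wells to normalise; raw counts from paired wells a and b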
Scale: induced reporter light, run 1, well a and induced reporter light, run 1, well b: higher = more light from the Notch target reporter with active Notch; control promoter light, run 1, well a and control promoter light, run 1, well b: higher = more light from the viral control promoter (cell number, transfection, viability); uninduced reporter light, run 1, well a: higher = more light from the Notch target reporter without active Notch
Active means: 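Hit if the duplicate-averaged log2 ratio of induced to control-promoter light gives a plate-wise z beyond ±2, or induced to uninduced beyond ±1.8; weak-control or discordant-duplicate wells dropped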
Calls: active = modifier hit (raised or lowered Notch signal); inactive = not a hit
The screen tested about 22,000 reagents; shown is a random part of those with a known target gene and a result. Over the whole deposit, 403 (1.9%) were called active. 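Unnormalised raw counts per well; ratio z-scores behind the hit calls and whether each hit raises or lowers signal are not deposited.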 The record does not give: the amount of reagent.

gene knocked down	DRSC id	induced reporter light, run 1, well a	induced reporter light, run 1, well b	control promoter light, run 1, well a	control promoter light, run 1, well b	uninduced reporter light, run 1, well a	Outcome
CG12672	DRSC19482	53675	49615	57270	57070	8178	inactive
nod	DRSC18900	70695	96690	80910	73075	5945	inactive
nod	DRSC20356	2.23e5	1.82e5	2.53e5	2.13e5	14055	inactive
L (retired record)	DRSC05966	64180	53150	69345	65265	9025	active
L (retired record)	DRSC05967	43060	42935	43340	35045	5370	inactive
Ets65A	DRSC09968	1.47e5	1.57e5	1.86e5	1.41e5	10325	inactive
Ets65A	DRSC10738	1.30e5	1.21e5	72610	41540	11875	inactive
Ets65A	DRSC11164	1.19e5	1.53e5	1.08e5	59470	10995	inactive
CG5498	DRSC11608	90925	96465	64795	96480	8515	inactive
dtn	DRSC17939	1.19e5	1.25e5	2.38e5	3.13e5	9755	inactive
Cyp28d2	DRSC03299	98225	70605	90175	79810	5840	inactive
CG12607	DRSC08287	1.64e5	3.16e5	2.84e5	2.82e5	8085	inactive
Alp6	DRSC06710	1.95e5	1.45e5	1.70e5	1.81e5	14795	inactive
P5CDh1	DRSC11801	1.88e5	1.70e5	1.10e5	1.51e5	11385	inactive
Paip1	DRSC07302	33520	46445	67890	64345	4782	inactive
CG11975	DRSC14452	1.51e5	1.64e5	1.25e5	1.11e5	9325	inactive
CG3868	DRSC10380	1.27e5	1.02e5	91265	78795	9325	inactive
Prosbeta2R1	DRSC18154	1.24e5	1.38e5	2.25e5	2.95e5	10075	inactive
CG15207 (retired record)	DRSC19653	1.68e5	1.13e5	2.81e5	2.14e5	9142	inactive
CG12061	DRSC20715	86190	87010	1.28e5	1.34e5	11615	inactive
CG12121	DRSC17816	1.39e5	1.27e5	2.94e5	2.65e5	8205	inactive
CG32452	DRSC11581	2.44e5	1.80e5	3.24e5	2.10e5	16890	inactive
RpS2	DRSC03614	14155	14475	12975	12030	868	inactive

An excerpt from above, reduced to “uninduced reporter light, run 1, well a”:
dtn [DRSC17939]: 9755
Cyp28d2 [DRSC03299]: 5840

Next reagents follow.
gene knocked down	DRSC id	induced reporter light, run 1, well a	induced reporter light, run 1, well b	control promoter light, run 1, well a	control promoter light, run 1, well b	uninduced reporter light, run 1, well a	Outcome
lncRNA:CR32658	DRSC19402	1.06e5	1.05e5	1.24e5	1.33e5	6960	inactive
Tsp74F	DRSC10508	1.77e5	1.58e5	2.01e5	2.37e5	7828	inactive
CG1542	DRSC15035	42985	43720	57920	49035	2300	inactive
Nlg2	DRSC03578	1.48e5	1.25e5	1.59e5	1.40e5	8450	inactive
CG7083	DRSC11136	2.12e5	1.63e5	1.36e5	1.66e5	9565	inactive
CG15465	DRSC18048	1.26e5	1.32e5	2.46e5	3.34e5	9928	inactive
CtsK2	DRSC06897	98520	92995	1.48e5	2.04e5	10705	inactive
CG4892	DRSC01937	1.56e5	1.79e5	2.17e5	2.40e5	14915	inactive
CG13155	DRSC06280	94135	88485	1.20e5	1.04e5	8870	inactive
CG4168	DRSC01446	86695	1.03e5	91035	88830	9600	inactive
CG4168	DRSC01447	1.19e5	85660	1.17e5	72170	8145	inactive
CG4168	DRSC01933	2.22e5	1.85e5	1.87e5	1.90e5	17470	inactive
CG4168	DRSC22789						active
